Test results taken from patent publication US20100081638A1 (KOREA RESEARCH INSTITUTE OF BIOSCIENCE AND BIOTECHNOLOGY, published 2010).
No constants are given. Whether binding was seen depends on the method and setting. Some entries that bind do so weakly or less than the wild type.

Amino acid sequences for entries named in this document (tags omitted).
UniProt P49023: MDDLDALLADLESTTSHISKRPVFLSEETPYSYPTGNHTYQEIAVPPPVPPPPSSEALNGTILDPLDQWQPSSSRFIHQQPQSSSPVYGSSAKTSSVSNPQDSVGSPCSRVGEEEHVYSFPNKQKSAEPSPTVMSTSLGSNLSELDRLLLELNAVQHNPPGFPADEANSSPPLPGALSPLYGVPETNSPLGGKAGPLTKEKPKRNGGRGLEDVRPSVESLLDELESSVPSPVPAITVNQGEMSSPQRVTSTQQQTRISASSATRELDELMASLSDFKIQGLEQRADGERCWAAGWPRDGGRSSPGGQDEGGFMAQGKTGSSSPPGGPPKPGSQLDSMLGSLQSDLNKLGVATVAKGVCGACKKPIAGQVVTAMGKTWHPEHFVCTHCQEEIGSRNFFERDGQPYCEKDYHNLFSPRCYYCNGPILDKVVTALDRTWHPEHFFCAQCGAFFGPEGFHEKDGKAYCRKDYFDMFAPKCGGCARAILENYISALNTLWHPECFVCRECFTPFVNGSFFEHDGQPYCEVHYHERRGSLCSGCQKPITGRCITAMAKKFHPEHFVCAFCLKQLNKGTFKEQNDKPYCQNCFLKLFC

What was measured:
paxillin [1] = target: paxillin (UniProt P49023); assay: physical association in SNU449 cell lysates with or without tiarellic acid (FIG. 10; method not described)
paxillin [2] = target: paxillin (UniProt P49023); assay: physical association in SNU449 cell lysates (FIG. 10 legend)

B1: p130Cas (other, UniProt P56945 1-870, looked up)
chain: MNHLNVLAKALYDNVAESPDELSFRKGDIMTVLEQDTQGLDGWWLCSLHGRQGIVPGNRLKILVGMYDKKPAGPGPGPPATPAQPQPGLHAPAPPASQYTPMLPNTYQPQPDSVYLVPTPSKAQQGLYQVPGPSPQFQSPPAKQTSTFSKQTPHHPFPSPATDLYQVPPGPGGPAQDIYQVPPSAGMGHDIYQVPPSMDTRSWEGTKPPAKVVVPTRVGQGYVYEAAQPEQDEYDIPRHLLAPGPQDIYDVPPVRGLLPSQYGQEVYDTPPMAVKGPNGRDPLLEVYDVPPSVEKGLPPSNHHAVYDVPPSVSKDVPDGPLLREETYDVPPAFAKAKPFDPARTPLVLAAPPPDSPPAEDVYDVPPPAPDLYDVPPGLRRPGPGTLYDVPRERVLPPEVADGGVVDSGVYAVPPPAEREAPAEGKRLSASSTGSTRSSQSASSLEVAGPGREPLELEVAVEALARLQQGVSATVAHLLDLAGSAGATGSWRSPSEPQEPLVQDLQAAVAAVQSAVHELLEFARSAVGNAAHTSDRALHAKLSRQLQKMEDVHQTLVAHGQALDAGRGGSGATLEDLDRLVACSRAVPEDAKQLASFLHGNASLLFRRTKATAPGPEGGGTLHPNPTDKTSSIQSRPLPSPPKFTSQDSPDGQYENSEGGWMEDYDYVHLQGKEEFEKTQKELLEKGSITRQGKSQLELQQLKQFERLEQEVSRPIDHDLANWTPAQPLAPGRTGGLGPSDRQLLLFYLEQCEANLTTLTNAVDAFFTAVATNQPPKIFVAHSKFVILSAHKLVFIGDTLSRQAKAADVRSQVTHYSNLLCDLLRGIVATTKAAALQYPSPSAAQDMVERVKELGHSTQQFRRVLGQLAAA
notes: Endogenous protein in lysates of SNU449 cell lines
With B1 the binding (paxillin [1]) was “binds” and the binding (paxillin [2]) was “binds”.
